Measurements published in patent publication CN112321709A.
These are yes or no findings as the source states them, for the method shown. In cells and extracts the contact can be indirect. Some binding calls cover weakened binding; strength is not graded here. One block for each binder: values may come before it.

Molecular target: T1, 7S Vicilin种子储藏蛋白(MiAMP2) (澳洲坚果 (macadamia)) (UniProt Q9SPL5)
T1 sequence (looked up): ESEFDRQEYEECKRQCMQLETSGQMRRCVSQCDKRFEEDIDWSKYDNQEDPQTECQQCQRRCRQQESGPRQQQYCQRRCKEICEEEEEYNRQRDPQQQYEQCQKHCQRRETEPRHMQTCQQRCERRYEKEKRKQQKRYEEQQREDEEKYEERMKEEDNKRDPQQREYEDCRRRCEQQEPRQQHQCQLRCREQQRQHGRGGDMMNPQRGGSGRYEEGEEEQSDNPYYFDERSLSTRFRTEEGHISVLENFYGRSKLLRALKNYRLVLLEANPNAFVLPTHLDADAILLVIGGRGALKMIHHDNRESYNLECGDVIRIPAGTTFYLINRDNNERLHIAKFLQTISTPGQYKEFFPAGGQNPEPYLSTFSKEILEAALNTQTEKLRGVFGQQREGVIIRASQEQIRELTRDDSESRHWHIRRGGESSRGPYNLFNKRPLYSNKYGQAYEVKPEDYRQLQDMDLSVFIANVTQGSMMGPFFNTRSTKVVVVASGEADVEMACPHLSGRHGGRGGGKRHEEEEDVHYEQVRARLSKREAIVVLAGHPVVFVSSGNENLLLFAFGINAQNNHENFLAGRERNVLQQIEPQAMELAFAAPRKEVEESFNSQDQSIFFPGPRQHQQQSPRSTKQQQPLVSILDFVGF
Test: Co-IP from macadamia protein with Ni-NTA magnetic beads on the nanobody His tag, Western blot, LC-MS/MS of the excised band

B1: 纳米抗体Nb139 (VHH, not shown: small tags and cut ends)
VHH: QVQLQESGGGLVQAGGSLRLSCAASGLTFSTYALGWFRQAPGKEREFVVAISRSGGRTNYADSVKGRFTISRDNAKNTVFLQMNSLKPEDTAIYYCAARYSSTYYSTFADPGYDYWGQGTQVTVSS
binding: binds

B4: 纳米抗体Nb135 (VHH, not shown: small tags and cut ends)
VHH: QVQLQESGGGLVQTGGSLKLSCTASGRTFSRYNMGWFRQAPGKEREFVAAISWSGVTYYEDSVKGRFTISRDNAQNTVYLQMNSLKTEDTAVYSCAADWNGILRTTASTYDYWGQGTQVTVSS
binding: binds

Second part, the binder after the results:

binding: binds
B2: 纳米抗体Nb58 (VHH, not shown: small tags and cut ends)
VHH: QVQLQESGGGLVQAGDSLRLSCAASGLTFSTYAMGWFRQAPGTEREFVATISRSGKSTNYADSMKGRFTISRDNAKNTVYLQMNSLKPEDTAVYYCAAAPLPSYYGGISYRGNEAQYWGQGTQVTVSS

binding: binds
B3: 纳米抗体Nb81 (VHH, not shown: small tags and cut ends)
VHH: QVQLQESGGGLVQAGGSLRLSCAASGRAFSNYAMGWFRQAPGKEREFVAGIRRLGGSTYYADSVKGRFTISRDNAKNTVYLQMNSLKPEDTAVYYCAVSERYREFSRAGMDYWGKGTQVTVSS

binding: binds
B5: 纳米抗体Nb68 (VHH, not shown: small tags and cut ends)
VHH: QVQLQESGGGLVQPGGSLRLSCWASGFTFSSSAMYWIRQAPGKGLEWVSAIYNNGITSYTDSVKGRFTISRDNAKNTVYLQMNNLKPEDTAVYYCARSPGSVRGQGTQVTVSS
